The values that follow come from PubChem BioAssay AID445 (National Center for Advancing Translational Sciences (NCATS), 2006).

The other results are listed elsewhere or left out. Shown are side measurements of this screen, not its main read-out; they come without a call. Compounds called inactive in the main read-out are mostly missing here. Words in brackets tell the shape of the fitted curve; partial curves, single points and poor fits give uncertain potencies.

The assay is described as follows: IkB Signaling. As to conditions: ABC-DLBCL IkBa-CBG/CBR dual luciferase ratio (green luciferase fused to IkBa over red control in OCI-Ly3 lymphoma cells), 4 h; measured here: control luc red channel unless noted. A digest of the protocol:
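Curves were fitted separately to fusion (green), unfused (red) and ratio luminescence, then classed by r2, magnitude and activity. Cells: OCI-Ly3, 4 h compound plus doxycycline at 37C; 10 uM MG-132 defined full response.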
Regarding `COc1ccc(S(=O)(=O)NCCc2sc3nc(-c4ccc(C)cc4)nn3c2C)cc1F`, the AC50 was 39.8 µM [falling, single point].

Take `CCOc1ccc(CNC(=O)c2cnc3sc(N(CC)CC)nn3c2=O)cc1`: the AC50 was 10 µM [falling, partial curve, poor fit].

In the case of `Cc1ccc(CNC(=O)CN2CCN(Cc3ccc(Cl)cc3)C2=O)cc1`, the AC50 is 12.6 µM [falling, partial curve].

Turning to `CC(=O)Nc1ccc(NC(=O)c2cc(-c3cccs3)on2)cc1`, the AC50 was 3.98 µM [rising, partial curve].

Regarding `O=C(CSC1=Nc2ccccc2N=C(c2ccc(F)cc2)C1)Nc1ccc(Cl)cc1`, the AC50 is 3.16 µM [falling, full curve, poor fit].

Turning to `CCc1cccc(C)c1NC(=O)c1ccc2c(c1)CCN2S(=O)(=O)CC`, the AC50 was 20 µM [falling, partial curve].

As for `O=C(COC(=O)c1ccccc1S(=O)(=O)N1CCCCC1)NCC(F)(F)F`, the AC50 was 25.1 µM [falling, single point].

Consider `CC(C)NC(=O)C1CCN(C(=O)c2cc3sccc3n2Cc2ccc(F)cc2)CC1`, for which the AC50 was 7.94 µM [falling, full curve, poor fit].

With `COc1ccc(N2CCN(C(=O)C(C)n3c(=O)cc(C(F)(F)F)c4c(C)nn(C)c43)CC2)cc1` (stereo unspecified), the AC50 is 31.6 µM [falling, single point].

In the case of `CCn1c2ccccc2c2cc(NC(=O)CSc3nnc(C4CC4)n3Cc3ccco3)ccc21`, the AC50 was 15.8 µM [falling, partial curve].

Take `COc1ccc(CN(C(=O)CN2C(=O)COc3ccccc32)C2CCCC2)c(OC)c1`: the AC50 was 31.6 µM [falling, partial curve, poor fit].

Regarding `Cc1ccc(-n2c(=O)c3oc4ccccc4c3n(CC(=O)Nc3ccc(F)c(Cl)c3)c2=O)cc1C`, the half-maximal activity concentration (AC50) was 15.8 µM [falling, partial curve].

Take `O=C(CS(=O)(=O)c1cccc2nsnc12)Nc1ccc(F)cc1F`: the AC50 is 2.51 µM [falling, partial curve].

With `O=C(Nc1ccccc1F)C1CCN(S(=O)(=O)c2ccc3c(c2)CCCN3C(=O)C2CCC2)CC1`, the AC50 was 0.316 µM [falling, partial curve, poor fit].

On to `O=C(Nc1ccc(C(=O)OCc2cc(=O)n3nc(C4CC4)sc3n2)cc1)c1cccc(Cl)c1`, for which the AC50 is 39.8 µM [falling, partial curve, poor fit].

For `CCc1ccccc1NC(=O)C(CC)Oc1ccccc1-c1nnc(-c2ccccc2)o1` (stereo unspecified), the AC50 is 3.98 µM [falling, partial curve, poor fit].

As a reminder, the AC50 is the concentration giving half of the maximal activity seen.
